Measurements from publication PMC4299599, “Quantification of cytosolic interactions identifies Ede1 oligomers as key organizers of endocytosis” (Molecular Systems Biology, 2014).
No constants are given. Whether binding was seen depends on the method and setting. Some entries that bind do so weakly or less than the wild type. Each block holds one binder with its values, some of them ahead of it.

What was measured:
Ste11 (S. cerevisiae) = target: T1, Ste11 (S. cerevisiae) (UniProt P23561); assay: condition: 1000 nM (only Kdeff-values < 1000 nM are shown); fluorescence cross-correlation spectroscopy (FCCS); in the cytoplasm of living yeast cells; first-named protein green (3myeGFP or 1myeGFP; eGFP for Don1), second red (3mCherry); self-interaction in diploid strains with one allele of each colour; apparent or effective KD (Kdeff) from single-cell measurements; only Kdeff values < 1000 nM are shown; values for self-interactions are upper limits
T1 sequence: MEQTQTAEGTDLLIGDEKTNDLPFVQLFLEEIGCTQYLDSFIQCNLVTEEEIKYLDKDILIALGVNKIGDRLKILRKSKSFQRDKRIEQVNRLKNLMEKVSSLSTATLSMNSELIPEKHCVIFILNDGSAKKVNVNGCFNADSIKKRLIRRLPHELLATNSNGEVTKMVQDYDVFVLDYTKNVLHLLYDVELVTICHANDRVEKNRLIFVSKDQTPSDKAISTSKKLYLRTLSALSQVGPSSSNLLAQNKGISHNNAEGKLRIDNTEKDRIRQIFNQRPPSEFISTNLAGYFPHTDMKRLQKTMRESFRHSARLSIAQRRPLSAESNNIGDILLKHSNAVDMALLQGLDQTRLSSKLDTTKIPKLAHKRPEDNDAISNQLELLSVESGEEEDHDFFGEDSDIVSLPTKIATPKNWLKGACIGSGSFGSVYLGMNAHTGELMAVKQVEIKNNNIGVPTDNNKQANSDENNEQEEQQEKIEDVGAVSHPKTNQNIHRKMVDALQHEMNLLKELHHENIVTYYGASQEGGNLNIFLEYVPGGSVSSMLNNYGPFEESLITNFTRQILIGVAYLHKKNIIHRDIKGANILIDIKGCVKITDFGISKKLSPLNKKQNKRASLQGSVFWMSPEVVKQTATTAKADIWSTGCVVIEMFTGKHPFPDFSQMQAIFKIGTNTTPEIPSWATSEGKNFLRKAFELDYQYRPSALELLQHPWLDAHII

Apl1 (S. cerevisiae) = Apl1 (S. cerevisiae) (UniProt P27351); assay: as above
Apl3 = target: T2, Apl3 (S. cerevisiae, UniProt P38065 1-1025); assay: fluorescence cross-correlation spectroscopy (FCCS); living yeast cells, observation volume in the cytoplasm; one protein tagged with (3)myeGFP/eGFP and the other with 3mCherry in the same strain; apparent (effective) KD; interactions up to ~1 μM detectable
T2 construct: Apl3, subunit of the AP2 complex, S. cerevisiae; also called Apl3-3myeGFP; Apl3-3mCherry; source: chromosomally tagged at the endogenous locus, in the cytoplasm of living S. cerevisiae cells
T2 sequence (looked up): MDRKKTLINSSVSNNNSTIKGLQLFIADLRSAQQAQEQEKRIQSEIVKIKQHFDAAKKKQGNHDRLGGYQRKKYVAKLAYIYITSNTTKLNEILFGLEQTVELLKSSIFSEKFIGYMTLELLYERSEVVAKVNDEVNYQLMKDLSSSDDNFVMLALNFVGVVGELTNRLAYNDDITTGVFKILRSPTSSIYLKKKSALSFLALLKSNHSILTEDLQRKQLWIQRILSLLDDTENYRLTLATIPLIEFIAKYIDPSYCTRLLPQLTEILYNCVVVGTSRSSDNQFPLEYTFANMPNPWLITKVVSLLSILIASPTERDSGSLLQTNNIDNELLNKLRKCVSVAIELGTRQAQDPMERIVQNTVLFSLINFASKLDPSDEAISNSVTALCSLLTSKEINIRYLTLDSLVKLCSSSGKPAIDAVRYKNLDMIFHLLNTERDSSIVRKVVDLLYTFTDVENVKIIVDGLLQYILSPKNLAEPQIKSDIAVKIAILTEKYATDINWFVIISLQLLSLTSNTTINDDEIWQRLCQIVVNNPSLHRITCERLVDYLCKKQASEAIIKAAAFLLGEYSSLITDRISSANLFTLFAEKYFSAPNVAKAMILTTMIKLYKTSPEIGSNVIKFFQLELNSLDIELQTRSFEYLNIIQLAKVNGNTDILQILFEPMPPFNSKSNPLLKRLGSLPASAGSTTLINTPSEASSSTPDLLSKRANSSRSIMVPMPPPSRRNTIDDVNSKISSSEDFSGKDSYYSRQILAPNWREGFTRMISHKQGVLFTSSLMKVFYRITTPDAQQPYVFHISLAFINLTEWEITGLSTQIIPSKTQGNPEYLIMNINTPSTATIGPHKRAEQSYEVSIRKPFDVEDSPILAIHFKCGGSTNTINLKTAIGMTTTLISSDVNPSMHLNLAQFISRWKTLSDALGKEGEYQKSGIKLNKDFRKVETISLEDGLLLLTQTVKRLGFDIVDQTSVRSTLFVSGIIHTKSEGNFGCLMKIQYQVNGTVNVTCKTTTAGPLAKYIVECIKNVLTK

[1] = target: T3, End3 (S. cerevisiae), P39013; assay: condition: 1000 nM (only Kdeff-values < 1000 nM are shown); fluorescence cross-correlation spectroscopy (FCCS); in the cytoplasm of living yeast cells; first-named protein green (3myeGFP or 1myeGFP; eGFP for Don1), second red (3mCherry); self-interaction in diploid strains with one allele of each colour; apparent or effective KD (Kdeff) from single-cell measurements; only Kdeff values < 1000 nM are shown; values for …; details: remark: other sources report otherwise
T3 chain: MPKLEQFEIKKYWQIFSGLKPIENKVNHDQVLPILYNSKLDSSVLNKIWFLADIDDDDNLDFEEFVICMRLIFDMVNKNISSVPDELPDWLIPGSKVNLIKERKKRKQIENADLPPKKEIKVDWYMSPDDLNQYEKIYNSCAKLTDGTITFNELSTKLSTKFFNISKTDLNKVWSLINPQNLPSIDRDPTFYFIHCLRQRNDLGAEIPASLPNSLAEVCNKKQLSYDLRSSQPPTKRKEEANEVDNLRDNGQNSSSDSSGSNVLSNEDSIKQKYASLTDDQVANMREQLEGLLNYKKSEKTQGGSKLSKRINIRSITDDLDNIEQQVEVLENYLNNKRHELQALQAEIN

binding (Ste11 (S. cerevisiae)): no binding
B1: Don1 (protein, UniProt Q05610 1-365)
chain: MGKKNRKGKENNAAKTSFLKVENIKNTNSGLELPSQDYTNVEEKESSPKTDFPLITKEHVNTKTDSNILDYPTIGDLVSSVEKLCVLKELKIAFPEVDDTLIKAILIASQGVLEPAFNSLLYYSSPEENTDFALPMKPISVEDYSKINVSEILQREIFDDIEDEFSGQGINGSMVISKIESELSSLAEHIGNISTPGSNREVAESTRNVAVAEGHNTILSNEDSILKGKEKGKEEEKEKGEEKGVNSLKGAAVKVVAKSLKNNRIPVTVKRNEPSNNLFDVLNCDESEEEEEQDVETNTSNQERKNQGGNTEVPEAQRDSADRLPAKDDGGYKSAFGTDSCGLFAADAKDEKKQVHPSRQELSFT

binding (Apl1 (S. cerevisiae)): no binding | binding (Apl3): binds
B2: Apl1 (natural protein, S. cerevisiae, UniProt P27351 1-700, looked up)
chain: MSDQKVFARYKANEIVTDLQHFGVKKFKSNITRRKNALRKIIANLVLGNYGEMSVLFSELLKFWQIEDDLEVKRICHEYIRVIGALKPQQAREALPFIMDDFKSRDEKLQIMALRTLVLVPVKELSDQAFDCIISLVNHKSPPEQVTRTAIYALLDLDEIDHERVLGLSSILHDIVKAQSSSPEVIVAALHTLYSIHEKNANMEPFRIPLELAFDMLELLPELNEWNKATVLEVLTTSVVPQHYLDTHEMIELALPYLQQVNTYVVLNSLKFIMYLLNYVDVIKETLAEKLSNSVIALLDKPPELQFLVLRNVILLLLSRESSLLRLDISYFFIEYNDPIYIKDTKLECLYLLANKETLPRILEELEQYATDIDIQMSRKSVRAIGNLAVKLDEDSVHDCVAVLLDLLEFGVDYVVQEIISVFRNILRKYPNNFKANVTELVKHTEVVQEPESKNAMIWIITQYSDVIPNYLELFRVFSSNMFSETLEVQFSILNSAIKFFIRSPTKETEELCMDLLKGCIDHENNPDLRDKTLMYWRLLSLTKTSRISNAITFESLKSVLDGELPLIEMNTKLDPTVLEELELNIGTIVSIYLKPVSHIFRLNKTKLLPQSPILNPNKDLLPVVGNSFPPTGANRDRQNSESQSSTKSRKTAMMDDYDKPAEKINQLKGKRKSSSNNPSKLSRKPSTLLRKLSMKRPFS
notes: Apl1, subunit of the AP2 complex, S. cerevisiae; also called Apl1-1myeGFP; Apl1-3mCherry; source: chromosomally tagged at the endogenous locus, in the cytoplasm of living S. cerevisiae cells

binding [1]: no binding
B3: Yap1802, P53309 1-568 (protein)
chain: MSSLYTKLVKGATKIKMAPPKQKYVDPILSGTSSARGLQEITHALDIRLSDTAWTIVYKALIVLHLMIQQGEKDVTLRHYSHNLDVFQLRKISHTTKWSSNDMRALQRYDEYLKTRCEEYGRLGMDHLRDNYSSLKLGSKNQLSMDEELDHVESLEIQINALIRNKYSVSDLENHLLLYAFQLLVQDLLGLYNALNEGVITLLESFFELSIEHAKRTLDLYKDFVDMTEYVVRYLKIGKAVGLKIPVIKHITTKLINSLEEHLREETKRQRGEPSEPQQDRKPSTAISSTSSHNNNSNDKNKSIAQKKLEQIREQKRLLEQQLQNQQLLISPTVPQDAYNPFGSQQQDLNNDTFSFEPTQPQMTAQVPQPTANPFLIPQQQQQALQLTSASTMPQPSEIQITPNLNNQQTGMYASNLQYTPNFTGSGFGGYTTTENNAIMTGTLDPTKTGSNNPFSLENIAREQQQQNFQNSPNPFTLQQAQTTPILAHSQTGNPFQAQNVVTSPMGTYMTNPVAGQLQYASTGAQQQPQMMQGQQTGYVMVPTAFVPINQQQQQQQHQQENPNLIDI
